Data taken from article PMC5597230, “Identification and characterization of preferred DNA-binding sites for the Thermus thermophilus transcriptional regulator FadR”.
Construct, isoform or probe ends are uncertain for at least one entry. Protein sequences can lack the tags named with them.

Target: T1, FadR (Thermus thermophilus HB8) (UniProt Q5SM42)
T1 sequence (looked up, limits assumed): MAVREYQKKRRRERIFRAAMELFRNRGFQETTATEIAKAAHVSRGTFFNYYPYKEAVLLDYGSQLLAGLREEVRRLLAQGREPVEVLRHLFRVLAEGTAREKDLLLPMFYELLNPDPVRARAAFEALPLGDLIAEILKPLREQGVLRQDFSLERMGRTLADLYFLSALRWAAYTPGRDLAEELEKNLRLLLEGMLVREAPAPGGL
Assay: EMSA
Conditions: FadR titrations up to 600 nM, IRD700-labeled probes; recombinant protein; label: IRD700

Sequence | Kd [nM]
AGGAATTCGTGCAGAGGTGAATTGGGACTTAGTCCAATTACCATCCCTCCAGAAGCTTGG (double strand) [ST2_FadR_R5_m2] | > 300
AGGAATTCGTGCAGAGGTGAATTTGGAATTAGTCCAATTACCATCCCTCCAGAAGCTTGG (double strand) [ST2_FadR_R5_m6] | > 300
AGGAATTCGTGCAGAGGTGAATTTTGACTGAGTATAATTACCATCCCTCCAGAAGCTTGG (double strand) [ST2_FadR_TTHA0890] | 2.6
